Reference: the supplement of paper PMC10849652
The list shows a part of the results.

Sequences of proteins named here, by UniProt entry; tags and fusion partners are left off. A change or cut given only in a name is not applied to a line headed by its entry.
UniProt Q9UNA0: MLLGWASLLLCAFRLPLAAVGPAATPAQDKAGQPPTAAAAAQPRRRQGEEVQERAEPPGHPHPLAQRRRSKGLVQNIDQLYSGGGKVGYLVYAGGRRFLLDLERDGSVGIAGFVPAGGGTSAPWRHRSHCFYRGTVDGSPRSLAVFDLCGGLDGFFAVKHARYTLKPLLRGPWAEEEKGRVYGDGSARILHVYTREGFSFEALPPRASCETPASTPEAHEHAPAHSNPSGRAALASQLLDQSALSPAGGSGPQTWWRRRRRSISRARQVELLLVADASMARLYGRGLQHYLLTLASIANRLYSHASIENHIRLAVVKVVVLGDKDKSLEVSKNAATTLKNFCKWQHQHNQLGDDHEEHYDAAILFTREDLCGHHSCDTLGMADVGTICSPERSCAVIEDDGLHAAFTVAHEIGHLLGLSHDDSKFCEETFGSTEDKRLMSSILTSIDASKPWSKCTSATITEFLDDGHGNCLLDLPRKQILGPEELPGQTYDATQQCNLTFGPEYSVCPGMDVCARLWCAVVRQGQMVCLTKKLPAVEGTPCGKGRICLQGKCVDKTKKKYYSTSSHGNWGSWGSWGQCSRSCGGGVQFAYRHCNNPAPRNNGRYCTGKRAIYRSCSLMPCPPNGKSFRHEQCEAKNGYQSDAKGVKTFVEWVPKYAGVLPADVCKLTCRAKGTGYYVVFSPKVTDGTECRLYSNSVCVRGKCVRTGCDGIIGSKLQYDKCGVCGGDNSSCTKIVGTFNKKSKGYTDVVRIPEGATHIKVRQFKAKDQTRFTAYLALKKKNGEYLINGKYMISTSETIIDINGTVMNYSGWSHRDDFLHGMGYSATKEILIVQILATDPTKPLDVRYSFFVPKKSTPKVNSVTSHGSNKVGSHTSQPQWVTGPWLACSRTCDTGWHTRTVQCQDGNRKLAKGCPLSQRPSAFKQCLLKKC
UniProt P23526: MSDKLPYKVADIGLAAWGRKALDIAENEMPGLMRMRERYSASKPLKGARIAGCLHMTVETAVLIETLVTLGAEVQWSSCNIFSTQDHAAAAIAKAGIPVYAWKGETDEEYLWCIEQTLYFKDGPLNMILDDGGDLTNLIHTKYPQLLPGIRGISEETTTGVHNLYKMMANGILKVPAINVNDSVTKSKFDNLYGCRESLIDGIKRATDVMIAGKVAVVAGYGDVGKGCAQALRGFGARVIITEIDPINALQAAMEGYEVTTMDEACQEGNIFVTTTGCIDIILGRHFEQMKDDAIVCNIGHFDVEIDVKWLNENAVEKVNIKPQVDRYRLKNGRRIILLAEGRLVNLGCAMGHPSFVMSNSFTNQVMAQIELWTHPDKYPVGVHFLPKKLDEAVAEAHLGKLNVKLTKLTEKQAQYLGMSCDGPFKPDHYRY
UniProt Q12904: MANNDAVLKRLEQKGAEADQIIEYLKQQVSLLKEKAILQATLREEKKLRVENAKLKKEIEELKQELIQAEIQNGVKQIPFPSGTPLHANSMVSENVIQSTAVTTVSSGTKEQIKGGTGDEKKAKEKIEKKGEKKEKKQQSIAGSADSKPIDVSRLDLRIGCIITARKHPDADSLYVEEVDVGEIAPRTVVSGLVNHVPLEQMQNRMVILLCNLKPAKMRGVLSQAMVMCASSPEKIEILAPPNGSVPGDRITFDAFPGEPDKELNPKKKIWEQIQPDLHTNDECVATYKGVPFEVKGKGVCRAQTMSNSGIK
UniProt Q9UPW5: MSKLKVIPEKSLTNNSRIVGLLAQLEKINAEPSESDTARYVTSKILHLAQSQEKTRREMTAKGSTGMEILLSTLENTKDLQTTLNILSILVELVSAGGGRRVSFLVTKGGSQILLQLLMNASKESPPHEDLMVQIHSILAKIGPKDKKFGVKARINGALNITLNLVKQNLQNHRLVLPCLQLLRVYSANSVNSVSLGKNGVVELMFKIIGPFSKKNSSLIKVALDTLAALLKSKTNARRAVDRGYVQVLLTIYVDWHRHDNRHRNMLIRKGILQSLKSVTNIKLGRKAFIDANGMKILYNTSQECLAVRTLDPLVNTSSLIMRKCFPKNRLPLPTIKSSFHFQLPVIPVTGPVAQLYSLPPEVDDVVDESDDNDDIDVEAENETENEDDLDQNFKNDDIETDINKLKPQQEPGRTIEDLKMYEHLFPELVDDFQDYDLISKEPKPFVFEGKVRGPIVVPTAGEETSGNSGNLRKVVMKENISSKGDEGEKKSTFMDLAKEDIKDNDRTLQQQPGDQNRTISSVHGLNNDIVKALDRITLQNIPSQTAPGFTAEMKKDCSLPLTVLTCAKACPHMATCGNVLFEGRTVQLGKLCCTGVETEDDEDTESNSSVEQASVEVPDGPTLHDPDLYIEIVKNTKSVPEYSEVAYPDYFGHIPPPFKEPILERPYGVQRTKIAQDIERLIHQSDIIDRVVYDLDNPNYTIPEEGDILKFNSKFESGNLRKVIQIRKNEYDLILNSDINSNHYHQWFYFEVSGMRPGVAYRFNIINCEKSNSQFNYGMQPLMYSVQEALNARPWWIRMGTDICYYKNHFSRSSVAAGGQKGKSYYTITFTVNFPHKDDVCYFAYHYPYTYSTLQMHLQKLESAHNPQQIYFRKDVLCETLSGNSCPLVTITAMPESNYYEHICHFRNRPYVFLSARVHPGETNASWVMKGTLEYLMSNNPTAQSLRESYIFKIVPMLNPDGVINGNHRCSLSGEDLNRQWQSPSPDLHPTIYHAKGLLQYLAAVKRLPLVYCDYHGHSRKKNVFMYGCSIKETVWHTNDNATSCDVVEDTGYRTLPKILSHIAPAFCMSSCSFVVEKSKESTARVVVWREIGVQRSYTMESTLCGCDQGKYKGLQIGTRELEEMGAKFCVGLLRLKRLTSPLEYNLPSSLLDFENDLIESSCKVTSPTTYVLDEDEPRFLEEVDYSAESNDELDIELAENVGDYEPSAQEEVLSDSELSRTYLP
UniProt Q7Z6V5: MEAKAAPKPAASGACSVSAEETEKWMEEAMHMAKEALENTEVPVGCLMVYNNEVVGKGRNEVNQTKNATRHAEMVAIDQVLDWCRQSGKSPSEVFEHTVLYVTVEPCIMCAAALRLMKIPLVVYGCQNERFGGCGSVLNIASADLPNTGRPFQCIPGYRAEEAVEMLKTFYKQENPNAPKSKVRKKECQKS
UniProt Q9NX46: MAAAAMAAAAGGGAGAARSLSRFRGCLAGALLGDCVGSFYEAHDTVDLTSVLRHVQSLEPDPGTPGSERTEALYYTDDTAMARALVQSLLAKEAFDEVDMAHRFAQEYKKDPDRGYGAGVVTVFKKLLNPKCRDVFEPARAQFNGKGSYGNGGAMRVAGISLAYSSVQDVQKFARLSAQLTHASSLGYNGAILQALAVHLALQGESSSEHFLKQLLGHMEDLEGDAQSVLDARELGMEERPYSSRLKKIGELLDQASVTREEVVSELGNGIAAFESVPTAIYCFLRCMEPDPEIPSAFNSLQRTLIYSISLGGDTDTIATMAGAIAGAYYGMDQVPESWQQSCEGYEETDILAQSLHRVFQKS
UniProt Q96P47: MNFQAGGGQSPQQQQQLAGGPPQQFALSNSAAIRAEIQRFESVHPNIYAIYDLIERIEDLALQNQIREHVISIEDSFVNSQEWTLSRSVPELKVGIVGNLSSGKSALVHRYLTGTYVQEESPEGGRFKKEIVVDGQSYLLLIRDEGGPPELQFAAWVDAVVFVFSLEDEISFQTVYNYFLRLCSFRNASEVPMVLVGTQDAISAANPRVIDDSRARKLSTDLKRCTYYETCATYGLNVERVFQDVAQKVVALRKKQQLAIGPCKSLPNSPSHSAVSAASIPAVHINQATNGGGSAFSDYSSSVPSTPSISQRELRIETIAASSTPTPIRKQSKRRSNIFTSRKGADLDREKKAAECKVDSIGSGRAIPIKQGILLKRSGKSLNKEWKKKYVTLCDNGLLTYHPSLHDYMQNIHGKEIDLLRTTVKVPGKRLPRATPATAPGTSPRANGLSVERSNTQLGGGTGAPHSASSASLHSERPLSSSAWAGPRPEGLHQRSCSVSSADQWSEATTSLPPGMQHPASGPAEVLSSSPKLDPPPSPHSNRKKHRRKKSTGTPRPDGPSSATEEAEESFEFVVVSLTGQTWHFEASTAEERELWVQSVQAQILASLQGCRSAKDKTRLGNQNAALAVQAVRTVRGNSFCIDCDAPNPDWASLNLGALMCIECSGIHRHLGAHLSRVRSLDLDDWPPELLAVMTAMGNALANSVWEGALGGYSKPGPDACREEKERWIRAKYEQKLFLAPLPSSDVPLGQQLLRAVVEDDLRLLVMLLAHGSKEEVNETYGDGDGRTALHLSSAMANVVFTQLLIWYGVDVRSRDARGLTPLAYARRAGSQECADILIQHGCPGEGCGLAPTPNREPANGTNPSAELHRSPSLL
UniProt Q9BV57: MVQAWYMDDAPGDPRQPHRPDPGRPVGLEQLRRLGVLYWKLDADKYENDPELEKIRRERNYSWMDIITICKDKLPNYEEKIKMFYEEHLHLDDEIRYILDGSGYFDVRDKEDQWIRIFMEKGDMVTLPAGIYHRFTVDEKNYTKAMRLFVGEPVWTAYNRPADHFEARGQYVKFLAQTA
UniProt Q9GZN1, whole entry, looked up: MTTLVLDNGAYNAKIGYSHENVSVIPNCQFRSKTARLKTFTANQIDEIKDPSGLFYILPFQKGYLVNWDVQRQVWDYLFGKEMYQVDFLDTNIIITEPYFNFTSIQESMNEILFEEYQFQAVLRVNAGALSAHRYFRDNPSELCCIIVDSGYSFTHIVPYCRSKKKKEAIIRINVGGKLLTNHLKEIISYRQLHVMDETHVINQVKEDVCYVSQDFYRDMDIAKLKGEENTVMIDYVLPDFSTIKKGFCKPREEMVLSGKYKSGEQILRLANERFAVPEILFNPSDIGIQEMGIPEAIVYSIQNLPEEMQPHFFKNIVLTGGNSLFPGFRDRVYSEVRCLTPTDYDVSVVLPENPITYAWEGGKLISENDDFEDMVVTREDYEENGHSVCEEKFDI
UniProt O00116: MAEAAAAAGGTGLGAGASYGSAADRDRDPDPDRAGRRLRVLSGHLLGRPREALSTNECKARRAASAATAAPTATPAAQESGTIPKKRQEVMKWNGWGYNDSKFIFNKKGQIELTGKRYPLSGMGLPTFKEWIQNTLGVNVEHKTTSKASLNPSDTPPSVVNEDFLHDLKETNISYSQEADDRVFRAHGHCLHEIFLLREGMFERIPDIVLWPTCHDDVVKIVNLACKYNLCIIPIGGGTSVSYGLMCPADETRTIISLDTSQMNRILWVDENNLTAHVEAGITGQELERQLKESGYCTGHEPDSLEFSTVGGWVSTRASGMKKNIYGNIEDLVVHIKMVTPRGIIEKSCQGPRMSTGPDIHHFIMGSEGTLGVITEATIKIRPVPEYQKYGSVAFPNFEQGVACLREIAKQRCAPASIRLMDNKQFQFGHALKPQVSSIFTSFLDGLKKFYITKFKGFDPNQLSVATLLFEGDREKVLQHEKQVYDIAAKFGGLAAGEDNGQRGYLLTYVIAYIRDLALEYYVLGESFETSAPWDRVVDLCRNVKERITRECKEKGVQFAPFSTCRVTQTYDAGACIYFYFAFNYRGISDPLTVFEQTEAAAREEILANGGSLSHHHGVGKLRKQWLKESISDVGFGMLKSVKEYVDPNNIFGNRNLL
UniProt Q9UHX3: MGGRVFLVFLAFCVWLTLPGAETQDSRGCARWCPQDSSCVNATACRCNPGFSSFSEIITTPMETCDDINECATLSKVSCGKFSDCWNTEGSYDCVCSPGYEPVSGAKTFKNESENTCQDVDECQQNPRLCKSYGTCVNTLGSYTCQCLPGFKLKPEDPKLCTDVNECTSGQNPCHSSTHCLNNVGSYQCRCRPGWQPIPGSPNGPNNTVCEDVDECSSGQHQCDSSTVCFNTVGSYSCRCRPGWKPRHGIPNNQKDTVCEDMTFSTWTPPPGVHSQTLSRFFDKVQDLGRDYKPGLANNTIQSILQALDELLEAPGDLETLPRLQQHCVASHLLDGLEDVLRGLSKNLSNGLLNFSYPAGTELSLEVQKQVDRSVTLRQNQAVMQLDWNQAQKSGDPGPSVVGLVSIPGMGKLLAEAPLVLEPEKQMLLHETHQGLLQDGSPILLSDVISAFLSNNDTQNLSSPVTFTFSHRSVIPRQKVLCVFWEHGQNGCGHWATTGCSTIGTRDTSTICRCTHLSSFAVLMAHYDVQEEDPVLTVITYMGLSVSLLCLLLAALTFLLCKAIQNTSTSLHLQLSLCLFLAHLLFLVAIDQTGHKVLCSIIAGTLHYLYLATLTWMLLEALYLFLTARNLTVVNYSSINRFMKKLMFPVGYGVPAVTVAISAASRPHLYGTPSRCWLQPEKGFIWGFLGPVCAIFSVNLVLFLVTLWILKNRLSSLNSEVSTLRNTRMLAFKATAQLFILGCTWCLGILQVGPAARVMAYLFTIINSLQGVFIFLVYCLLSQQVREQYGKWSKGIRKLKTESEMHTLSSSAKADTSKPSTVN

compound: C[C@H](Nc1ncnc2nc[nH]c12)c1cc2cccc(Cl)c2c(=O)n1-c1ccccc1 [duvelisib]; experiment: log2 fold change, soluble protein after heating vs DMSO (PISA); higher = thermal stabilisation; K562 lysate, 10 uM; active = over 0.2 and 3.5 SD of the protein, either way, in both replicates (recomputed)
In short: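 Values give the log-two fold change in thermal stability against solvent controls, from duplicates. Crude K562 extract at 1 mg/mL protein, made by dounce homogenisation in PBS pH 7.4 with 1 mM MgCl2, was treated with 10 μM compound for 30 min. After 3 min heating across 48°C-58°C, aliquots were pooled, adjusted to 0.5% NP-40 at 4°C and centrifuged at 21,000xg for 90 min. The supernatant was measured by TMTpro 16plex LC-MS/MS with channel sums equalised.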

log2 fold change, inactive:
ADAMTS5 (UniProt Q9UNA0) -0.004
AHCY (UniProt P23526) -0.004
ACTR2 (UniProt P61160) 0.038
ADAM9 (UniProt Q13443) -0.018
AIMP1 isoform 2 (UniProt Q12904) 0.007
ACTB, A0A2R8Y793 -0.013
ACTN1 isoform 3 (UniProt P12814) -0.023
AGTPBP1 (UniProt Q9UPW5) 0.009
ADAT2 (UniProt Q7Z6V5) 0.002
ADPRHL2 (UniProt Q9NX46) -0.034
AFDN (UniProt J3KN01) 0.028
AGAP3 isoform 4 (UniProt Q96P47) -0.076
ADI1 (UniProt Q9BV57) -0.005
ACOT9 isoform 4 (UniProt Q9Y305) -0.003
ACTR6 (UniProt Q9GZN1) 0.042
ADD1 isoform 3 (UniProt P35611) 0.014
AGPS (UniProt O00116) -0.011
AKR1C2 (UniProt P52895) 0.049
ADGRE2 (UniProt Q9UHX3) -0.046
AFF4 (UniProt Q9UHB7) 0.059

Already shown: an excerpt of the list.
log2 fold change, inactive:
AGTPBP1 (UniProt Q9UPW5) 0.009
ADAT2 (UniProt Q7Z6V5) 0.002
